Results: patent US20130116227A1, “BIARYL AMIDE DERIVATIVE OR PHARMACEUTICALLY ACCEPTABLE SALT THEREOF” (DAINIPPON SUMITOMO PHARMA CO., LTD., priority 2010, published 2013)

Amino acid sequences for entries named in this document (tags omitted).
UniProt P22199, whole entry: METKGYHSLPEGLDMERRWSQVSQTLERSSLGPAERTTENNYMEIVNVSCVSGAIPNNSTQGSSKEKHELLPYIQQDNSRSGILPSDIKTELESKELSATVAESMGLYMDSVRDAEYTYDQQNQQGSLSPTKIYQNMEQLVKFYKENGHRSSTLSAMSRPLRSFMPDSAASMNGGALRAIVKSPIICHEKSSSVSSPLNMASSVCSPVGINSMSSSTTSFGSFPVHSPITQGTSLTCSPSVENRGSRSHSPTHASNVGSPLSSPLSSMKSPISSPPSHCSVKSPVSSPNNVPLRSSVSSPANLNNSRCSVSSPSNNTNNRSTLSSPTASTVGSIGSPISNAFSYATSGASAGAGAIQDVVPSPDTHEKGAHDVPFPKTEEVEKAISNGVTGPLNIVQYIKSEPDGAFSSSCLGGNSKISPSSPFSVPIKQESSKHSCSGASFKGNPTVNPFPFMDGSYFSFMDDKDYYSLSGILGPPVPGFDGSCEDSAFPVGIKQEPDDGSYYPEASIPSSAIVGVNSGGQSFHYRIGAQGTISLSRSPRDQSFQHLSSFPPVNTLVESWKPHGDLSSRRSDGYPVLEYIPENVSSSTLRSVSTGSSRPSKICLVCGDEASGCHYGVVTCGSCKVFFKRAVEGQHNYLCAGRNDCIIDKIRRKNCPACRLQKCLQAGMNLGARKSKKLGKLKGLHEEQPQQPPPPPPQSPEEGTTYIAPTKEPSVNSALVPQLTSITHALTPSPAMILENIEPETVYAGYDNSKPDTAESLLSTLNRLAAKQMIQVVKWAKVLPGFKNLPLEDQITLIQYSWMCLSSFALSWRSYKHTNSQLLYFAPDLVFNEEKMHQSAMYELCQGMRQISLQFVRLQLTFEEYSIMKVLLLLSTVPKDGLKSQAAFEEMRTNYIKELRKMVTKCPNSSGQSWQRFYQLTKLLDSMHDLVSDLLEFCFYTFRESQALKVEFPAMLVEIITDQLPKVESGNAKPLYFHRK

Target: aldosterone receptor (Rattus norvegicus, UniProt P22199)
Assay: Binding inhibition test for aldosterone receptor ([3H]aldosterone, rat renal soluble fraction)
Conditions: read-out: MR IC50, [3H]aldosterone 2 nM, in the presence of 2 μM RU-486, 4° C. about 18 hours

Structure (SMILES) | IC50
COc1cc(NC(=O)c2ccc(-c3ccccc3C(F)(F)F)c(COCCN3CCOCC3)c2)ccc1S(N)(=O)=O | 290 nM
COCCNCc1cc(C(=O)Nc2ccc(S(N)(=O)=O)c(OC)c2)ccc1-c1ccccc1C(F)(F)F | 410 nM
CS(=O)(=O)c1ccc(NC(=O)c2ccc(-c3ccccc3OC(F)(F)F)c(CNCc3nccs3)c2)cc1 | 390 nM
COCc1cc(C(=O)Nc2ccc(S(N)(=O)=O)c(OC)c2)ccc1-c1ccccc1-c1ccncc1 | < 10000 nM
CS(=O)(=O)c1ccc(NC(=O)c2ccc(-c3ccccc3OC(F)(F)F)c(CNCc3ccco3)c2)cc1 | 870 nM
COCCNCc1cc(C(=O)Nc2ccc(S(C)(=O)=O)cc2)ccc1-c1ccccc1OC(F)(F)F | 1300 nM
COc1cc(NC(=O)c2ccc(-c3ccccc3C(F)(F)F)c(OCCN3CCCC3=O)c2)ccc1S(N)(=O)=O | 3600 nM

The match of structure and compound is tentative.
